# Experimental data taken from PubChem BioAssay AID504834 (National Center for Advancing Translational Sciences (NCATS), 2011).
# Values joined by “and” are separate entries in the source; they are usually repeats but may differ in a detail not shown here. Equal values may be shown once. Out of some 320,000 compounds screened, about 22,000 (6.9%) were called active. Inconclusive results, whose numbers are uncertain, are shown with a selection of clear calls. Calls come from the whole dose curve; as a rule, active = well fitted inhibition curve with a large enough effect; inconclusive = small, poorly fitted or top-dose-only effect, or another doubt; inactive = no such curve, though single readings can be large or run the other way. A potency beside an inconclusive call is a rough fit, not a confirmed value.
# Assay: Primary qHTS for delayed death inhibitors of the malarial parasite plastid, 96 hour incubation
# Settings: P. falciparum luciferase reporter growth; series mostly up to 28.7 µM
# Procedure, shortened: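 Plates of compound plus infected erythrocytes (2% hematocrit, 0.05% parasitemia final) incubate 96 hours, 37 C, 5% CO2. Detection reagent added; reduced luminescence from the parasites' luciferase reporter flags inhibition.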
# Potency is the fitted concentration of half-maximal effect.
row,SMILES,Potency
1,COc1ccc(N(C)C(=O)CCS(=O)(=O)c2cccc3nonc23)c(OC)c1,"inconclusive: 10.4 µM [inhibitor, single point]"
2,CC(=O)OCCNc1cc(SC(C)C)c2nonc2c1[N+](=O)[O-],"inconclusive: 11.7 µM [inhibitor, single point]"
3,Cc1cc(NC(=O)C(C)C)ncc1NC(=O)CCc1ccccc1,inactive
4,CC(C)NC(=S)N/N=C/c1cccs1,active: 3.29 µM
5,COc1ccc(NC(=O)CSc2nc3ccccc3c(=O)n2CCCC(=O)NCC2CCCO2)c(OC)c1 (stereo not drawn),inactive
6,CCc1ccc(NC(=S)NC2CC3CCCC(C2)N3Cc2ccccc2)cc1 (stereo not drawn),"inconclusive: 1.47 µM [inhibitor, partial curve, poor fit]"
7,O=C(CSc1nc(=O)n(CCCN2CCOCC2)c2c1CCCC2)Nc1cccc(Cl)c1,"inconclusive: 18.5 µM [inhibitor, single point]"
8,Cc1ccc(-c2nc3c(=O)n(-c4ccccc4)c4c(c(=O)n(C)c(=O)n4C)c3o2)cc1,"inconclusive: 4.65 µM [inhibitor, partial curve, poor fit]"
9,O=C(O)CSc1nc2c(c(C(F)(F)F)n1)CCCC2,inactive
10,Cc1cc(C)c(S(=O)(=O)c2ccccc2Cl)c(=O)[nH]1,"inconclusive: 20.8 µM [inhibitor, partial curve, poor fit]"
11,Cc1nnc(NC(=O)CSc2nccn2-c2cccc(C)c2C)s1,"inconclusive: 7.38 µM [inhibitor, partial curve, poor fit]"
12,CCOc1ccc(CC2NCCc3cc(OCC)c(OCC)cc32)cc1OCC (stereo not drawn),"inconclusive: 5.22 µM [inhibitor, partial curve, poor fit]"
13,COc1ccc(CN(C(=O)CNC(=O)c2ccco2)C(C(=O)NCC2CCCO2)c2ccccc2)cc1 (stereo not drawn),active: 2.33 µM
14,CCc1ccc2c(c1)cc(CN(C(=S)Nc1ccccc1C)C1CC1)c1nnnn12,"inconclusive: 1.65 µM [inhibitor, full curve, poor fit]"
15,O=C1CCC(C(=O)NCc2ccccc2)N1 (stereo not drawn),inactive
16,Cc1ccc(NS(=O)(=O)c2cccc(C(=O)NCC(c3cccs3)N3CCOCC3)c2)cc1 (stereo not drawn),"inconclusive: 8.28 µM [inhibitor, single point]"
17,Cn1c(N)c(C(=O)COC(=O)CNC(=O)c2ccccc2Cl)c(=O)n(C)c1=O,inactive
18,CC1CCCC(C)N1/N=C/c1c[nH]c2ccc(Br)cc12 (stereo not drawn),"inconclusive: 18.5 µM [inhibitor, single point]"
19,CCOc1ccc2cc(C3CC(c4ccco4)=NN3S(C)(=O)=O)c(Cl)nc2c1 (stereo not drawn),"inconclusive: 18.5 µM [inhibitor, single point]"
20,COc1ccccc1N1N=C(c2ccc([N+](=O)[O-])cc2)CC1c1ccccc1 (stereo not drawn),inactive
21,O=C(Nc1ccc(Cl)c(Cl)c1)C1=Cc2ccccc2OC1,"inconclusive: 1.65 µM [inhibitor, partial curve, poor fit]"
22,CC(=O)N1c2ccc(S(=O)(=O)N3CCC(C(=O)Nc4cccc(C(F)(F)F)c4)CC3)cc2CC1C (stereo not drawn),"inconclusive: 2.94 µM [inhibitor, full curve, poor fit]"

# Part of the list above, tab-delimited:
row	SMILES	Potency
11	Cc1nnc(NC(=O)CSc2nccn2-c2cccc(C)c2C)s1	inconclusive: 7.38 µM [inhibitor, partial curve, poor fit]
21	O=C(Nc1ccc(Cl)c(Cl)c1)C1=Cc2ccccc2OC1	inconclusive: 1.65 µM [inhibitor, partial curve, poor fit]

# (more compounds)

row,SMILES,Potency
1,Cc1nn(-c2ccccc2)c(C)c1C(=O)OCC(=O)N(C)C1CCS(=O)(=O)C1 (stereo not drawn),inactive
2,O=C(C1=C(O)C(=O)N(CCOCCO)C1c1cccc([N+](=O)[O-])c1)c1cccs1 (stereo not drawn),"inconclusive: 4.15 µM [inhibitor, partial curve, poor fit]"
3,COc1ccccc1N1CCN(C(c2cccs2)C(C)NC(=O)c2cccs2)CC1 (stereo not drawn),"inconclusive: 18.5 µM [inhibitor, single point]"
4,CCOC(=O)C(N)CSC1CC(=O)N(c2ccc(C(=O)OC)cc2)C1=O (stereo not drawn),active: 5.22 µM
5,CCC(C(=O)NC1CCCC1)N(C(=O)Cn1nnc(-c2ccc(OC)c(OC)c2)n1)C1CCCCC1 (stereo not drawn),"inconclusive: 2.33 µM [inhibitor, full curve]"
6,COCCNC(=O)/C(C#N)=C/c1c(N2CCN(c3cccc(Cl)c3)CC2)nc2c(C)cccn2c1=O,"inconclusive: 2.94 µM [inhibitor, partial curve]"
7,COc1ccc(OC)c(-c2cc(C(=O)NCc3ccco3)no2)c1,inactive
8,Cc1ccc(CS(=O)Cc2ccc(C(=O)N3CCOCC3)o2)cc1 (stereo not drawn),"inconclusive: 13.1 µM [inhibitor, single point]"
9,C/C(=N\NC(N)=O)C1CC(Cc2ccccc2)C(=O)O1 (stereo not drawn),inactive
10,Cc1cccc(C2c3[nH]c4ccccc4c3CCN2C(=O)c2ocnc2C)n1 (stereo not drawn),"inconclusive: 2.62 µM [inhibitor, full curve, poor fit]"
11,CC1CCCCN1S(=O)(=O)c1ccc(NC(=O)c2cccc(-n3cnnn3)c2)cc1 (stereo not drawn),"inconclusive: 10.4 µM [inhibitor, partial curve, poor fit]"
12,Cc1nn2c(N)c(C#N)cnc2c1-c1ccc(Cl)cc1,inactive
13,COc1ccc2nc3sc(C(=O)NCc4cccs4)c(N)c3cc2c1,inactive
14,COC(=O)C(NC(=O)C(CC(C)C)NC(=O)C1CCC(C)CC1)C(C)C (stereo not drawn),"inconclusive: 18.5 µM [inhibitor, single point]"
15,Cc1ccc(NS(=O)(=O)c2cc(NC(=O)c3ccc4c(c3)NC(=O)CS4)ccc2C)c(C)c1,"inconclusive: 6.57 µM [inhibitor, partial curve]"
16,CC/C(=C(/CC)c1ccc(O)cc1)c1ccc(O)cc1,"inactive and inconclusive: 19 µM [inhibitor, single point]"
17,CCOC(=O)C(CCC(C)=O)C(=O)c1ccccc1 (stereo not drawn),"inconclusive: 23.3 µM [inhibitor, partial curve, poor fit]"
18,Cc1nc(SCc2c(F)cccc2Cl)n[nH]1,inactive
19,CCCc1cc(=O)oc2c(C)c(OCC(=O)NCCCN3CCOCC3)ccc12,"inconclusive: 18.5 µM [inhibitor, single point]"
20,CC(=O)Nc1ccc(S(=O)(=O)NNC(=S)NCC2CCCO2)cc1 (stereo not drawn),"inconclusive: 18.5 µM [inhibitor, single point]"
21,CCCCC(CC)C(=O)Nc1ncc([N+](=O)[O-])s1 (stereo not drawn),inactive
